Data source: PubChem BioAssay AID504808 (Drosophila RNAi Screening Center, 2011)
The deposit covers about 21,000 reagents; this is a random part of those with a known target gene and a result. Of all reagents, 18 (0.084%) got an active call. 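Raw counts without plate normalisation, one of two replicates; the ratio scores behind the calls were not deposited.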 A number with no mark means an inactive call. The numbers tell different reagents against one gene apart. A plus sign joins genes that one reagent is predicted to hit. Not given: the amount of reagent, the time to read-out.

Screen: 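Genes whose loss lifts activity of an E2F-responsive reporter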 (primary screen)
Cells: Drosophila S2 cells
Reagent: long dsRNA against Drosophila genes
Measured: 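Firefly luciferase driven by E2F sites, normalised to Renilla luciferase on the same minimal promoter, measured by plate reader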
Scale: E2F firefly: higher = more E2F reporter activity; Renilla normaliser: higher = more normaliser reporter signal
Hit rule: 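a knock-down counted as active when the firefly/Renilla E2F signal rose above 50%, a threshold chosen arbitrarily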

no.	gene	dsRNA no.	E2F firefly, rep 1	Renilla normaliser, rep 1
1	Nelf-E	1	1.15e5	4138
2	Obp28a	1	1.45e5	4571
3	CG7149	1	95109	4351
4	CG17154	1	1.28e5	7966
5	CG6340	1	1.66e5	6025
6	CG13171	1	96915	3961
7	CG2898	1	65338	4849
8	Usp7	1	84575	3063
9	Usp7	2	1.31e5	7005
10	Klp3A	1	1819	948
11	Pstk + Tim9b	1	1.71e5	5769
12	Pstk + Tim9b	2	1.43e5	5998
13	Tehao	1	1.04e5	4782
14	CG17974	1	99914	4091
15	Nplp1	1	78196	3089
16	EndoGI	1	1.10e5	4333
17	RhoGAP92B	1	1.43e5	7482
18	RhoGAP92B	2	1.28e5	5972
19	Ir67b	1	1.03e5	4900
20	CG12828	1	1.37e5	4753
21	CG6282	1	80543	3250
22	VhaPPA1-2	1	1.13e5	6136
23	CG4645	1	8295	648
24	Dsp1	1	64444	4338
25	CG34126	1	1.56e5	5362
26	CG34406 (retired record)	1	88375	4118
27	CG34406 (retired record)	2	1.68e5	5739
28	CG10254	1	90741	3485
29	LysX	1	90278	3852
30	CG8300	1	8516	712
31	CG10062	1	75002	3302
32	CG4884	1	1.11e5	6104
33	CG9747	1	80372	804
34	amos	1	96527	4060
35	heix	1	59357	3271
36	nw	1	75613	3534
37	nw	2	1.46e5	4773
38	Vps15	1	69974	3248
39	CG10866	1	1.02e5	4191
40	CG7333	1	1.14e5	7026
41	CG2924	1	1568	980
42	SoYb	1	1.57e5	4861
43	CG13891	1	95864	3803
44	pwn	1	1.43e5	5002
45	CG14764	1	1.34e5	5697
46	CG14764	2	3150	225
47	CG14764	3	1.35e5	5019
48	Prosbeta7	1	60716	3871
49	CG10663	1	1.12e5	5643
50	CG11929	1	1.53e5	6255
51	Ugt305A1	1	92912	3724
52	CG6276	1	70948	3282
53	Fas1	1	1.23e5	5966
54	nxf2	1	78699	3441
55	CG5742	1	77832	3149
56	CG33966	1	90010	4065
57	l(3)S110416 (retired record)	1	65001	3003
58	bi	1	1.08e5	5636
59	psidin	1	1.48e5	7740
60	CG17477	1	1.15e5	5900
61	Polr3F	1	1.67e5	7427
62	Ca-alpha1D	1	71097	3675
63	axed	1	1.33e5	4652
64	axed	2	98377	3639
65	Eip63F-1	1	1.26e5	4256
66	Eip63F-1	2	1.05e5	5107
67	CG15579	1	1.28e5	5555
68	lncRNA:CR32657	1	1.35e5	6591
69	mip120	1	91719	4476
70	Marcal1	1	1.41e5	5127
71	CG4701	1	86365	4541
72	CG42307 + mus312	1	96040	4084
73	CG4198	1	8398	888
74	Mlh1	1	2725	183
75	CG33922	1	1.43e5	5557
76	CG13315	1	1.02e5	4229
77	CG30334	1	1.20e5	5671
78	CG32845	1	1.24e5	4320
79	Neu2	1	1.29e5	8225
80	a	1	86726	4029
81	a	2	1.00e5	4189
82	CG10433	1	77771	3119
83	CG5776	1	81299	2887
84	lky	1	1.54e5	6651

7 consecutive records already listed:
no.	gene	dsRNA no.	E2F firefly, rep 1	Renilla normaliser, rep 1
40	CG7333	1	1.14e5	7026
41	CG2924	1	1568	980
42	SoYb	1	1.57e5	4861
43	CG13891	1	95864	3803
44	pwn	1	1.43e5	5002
45	CG14764	1	1.34e5	5697
46	CG14764	2	3150	225
